Data from ChEMBL document CHEMBL1144897, “A potent, selective inhibitor of matrix metalloproteinase-3 for the topical treatment of chronic dermal ulcers” (J Med Chem, 2003).

Sequences of proteins named here, by UniProt entry; tags and fusion partners are left off. A change or cut given only in a name is not applied to a line headed by its entry.
UniProt P08253: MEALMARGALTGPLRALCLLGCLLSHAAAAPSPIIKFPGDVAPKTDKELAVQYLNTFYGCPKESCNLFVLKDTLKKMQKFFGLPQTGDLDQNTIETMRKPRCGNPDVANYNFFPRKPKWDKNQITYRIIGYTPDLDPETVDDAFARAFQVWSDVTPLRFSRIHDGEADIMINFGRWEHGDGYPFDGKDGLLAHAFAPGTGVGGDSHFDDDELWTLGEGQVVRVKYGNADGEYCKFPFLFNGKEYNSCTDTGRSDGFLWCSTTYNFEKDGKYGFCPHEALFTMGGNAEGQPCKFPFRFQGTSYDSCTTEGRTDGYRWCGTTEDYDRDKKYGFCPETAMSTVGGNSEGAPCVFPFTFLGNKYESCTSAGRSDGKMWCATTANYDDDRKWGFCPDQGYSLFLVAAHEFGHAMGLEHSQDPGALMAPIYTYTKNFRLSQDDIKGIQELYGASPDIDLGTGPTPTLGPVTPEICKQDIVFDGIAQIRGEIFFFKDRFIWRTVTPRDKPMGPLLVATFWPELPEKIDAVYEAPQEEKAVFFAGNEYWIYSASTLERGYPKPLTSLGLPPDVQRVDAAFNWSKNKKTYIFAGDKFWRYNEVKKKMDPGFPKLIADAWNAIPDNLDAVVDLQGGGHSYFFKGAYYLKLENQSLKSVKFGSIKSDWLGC

Target: 72 kDa type IV collagenase (Homo sapiens, UniProt P08253)

In the case of CNC(=O)[C@H](Cc1ccc(OC)cc1)NC(=O)[C@@H](CC(=O)NO)CC(C)C, the IC50 is reported as 6 nM.
